No constants are given. Whether binding was seen depends on the method and setting. In cells and extracts the contact can be indirect. Some results given as binding are weak or reduced against the parent protein; the word gives no strength.
Tests used:
Test in all cases: co-IP; nuclear extract of S-phase NIH3T3 cells (16 h after re-addition of fully supplemented medium); antibody 2.5 ug/ml for 60 min at 4 C, Protein G Sepharose in IP-buffer (PBS, 1% Triton-X-100, 1 mM DTT, 0.2 mM PMSF, 1 mM NaF) for 2 h at 4 C, 4 washes; SDS-PAGE and immunoblotting
[1] = target: acetyltransferase p300 (mouse (endogenous in NIH3T3)) (UniProt B2RWS6)
[2] = target: deacetylase HDAC II (mouse (endogenous in NIH3T3)) (UniProt P70288)
[3] = target: HDAC I (mouse (endogenous in NIH3T3)), O09106; conditions: remark: other sources report otherwise

Protein sequences, listed by entry. Tags and fused reporters are not part of them.
UniProt B2RWS6: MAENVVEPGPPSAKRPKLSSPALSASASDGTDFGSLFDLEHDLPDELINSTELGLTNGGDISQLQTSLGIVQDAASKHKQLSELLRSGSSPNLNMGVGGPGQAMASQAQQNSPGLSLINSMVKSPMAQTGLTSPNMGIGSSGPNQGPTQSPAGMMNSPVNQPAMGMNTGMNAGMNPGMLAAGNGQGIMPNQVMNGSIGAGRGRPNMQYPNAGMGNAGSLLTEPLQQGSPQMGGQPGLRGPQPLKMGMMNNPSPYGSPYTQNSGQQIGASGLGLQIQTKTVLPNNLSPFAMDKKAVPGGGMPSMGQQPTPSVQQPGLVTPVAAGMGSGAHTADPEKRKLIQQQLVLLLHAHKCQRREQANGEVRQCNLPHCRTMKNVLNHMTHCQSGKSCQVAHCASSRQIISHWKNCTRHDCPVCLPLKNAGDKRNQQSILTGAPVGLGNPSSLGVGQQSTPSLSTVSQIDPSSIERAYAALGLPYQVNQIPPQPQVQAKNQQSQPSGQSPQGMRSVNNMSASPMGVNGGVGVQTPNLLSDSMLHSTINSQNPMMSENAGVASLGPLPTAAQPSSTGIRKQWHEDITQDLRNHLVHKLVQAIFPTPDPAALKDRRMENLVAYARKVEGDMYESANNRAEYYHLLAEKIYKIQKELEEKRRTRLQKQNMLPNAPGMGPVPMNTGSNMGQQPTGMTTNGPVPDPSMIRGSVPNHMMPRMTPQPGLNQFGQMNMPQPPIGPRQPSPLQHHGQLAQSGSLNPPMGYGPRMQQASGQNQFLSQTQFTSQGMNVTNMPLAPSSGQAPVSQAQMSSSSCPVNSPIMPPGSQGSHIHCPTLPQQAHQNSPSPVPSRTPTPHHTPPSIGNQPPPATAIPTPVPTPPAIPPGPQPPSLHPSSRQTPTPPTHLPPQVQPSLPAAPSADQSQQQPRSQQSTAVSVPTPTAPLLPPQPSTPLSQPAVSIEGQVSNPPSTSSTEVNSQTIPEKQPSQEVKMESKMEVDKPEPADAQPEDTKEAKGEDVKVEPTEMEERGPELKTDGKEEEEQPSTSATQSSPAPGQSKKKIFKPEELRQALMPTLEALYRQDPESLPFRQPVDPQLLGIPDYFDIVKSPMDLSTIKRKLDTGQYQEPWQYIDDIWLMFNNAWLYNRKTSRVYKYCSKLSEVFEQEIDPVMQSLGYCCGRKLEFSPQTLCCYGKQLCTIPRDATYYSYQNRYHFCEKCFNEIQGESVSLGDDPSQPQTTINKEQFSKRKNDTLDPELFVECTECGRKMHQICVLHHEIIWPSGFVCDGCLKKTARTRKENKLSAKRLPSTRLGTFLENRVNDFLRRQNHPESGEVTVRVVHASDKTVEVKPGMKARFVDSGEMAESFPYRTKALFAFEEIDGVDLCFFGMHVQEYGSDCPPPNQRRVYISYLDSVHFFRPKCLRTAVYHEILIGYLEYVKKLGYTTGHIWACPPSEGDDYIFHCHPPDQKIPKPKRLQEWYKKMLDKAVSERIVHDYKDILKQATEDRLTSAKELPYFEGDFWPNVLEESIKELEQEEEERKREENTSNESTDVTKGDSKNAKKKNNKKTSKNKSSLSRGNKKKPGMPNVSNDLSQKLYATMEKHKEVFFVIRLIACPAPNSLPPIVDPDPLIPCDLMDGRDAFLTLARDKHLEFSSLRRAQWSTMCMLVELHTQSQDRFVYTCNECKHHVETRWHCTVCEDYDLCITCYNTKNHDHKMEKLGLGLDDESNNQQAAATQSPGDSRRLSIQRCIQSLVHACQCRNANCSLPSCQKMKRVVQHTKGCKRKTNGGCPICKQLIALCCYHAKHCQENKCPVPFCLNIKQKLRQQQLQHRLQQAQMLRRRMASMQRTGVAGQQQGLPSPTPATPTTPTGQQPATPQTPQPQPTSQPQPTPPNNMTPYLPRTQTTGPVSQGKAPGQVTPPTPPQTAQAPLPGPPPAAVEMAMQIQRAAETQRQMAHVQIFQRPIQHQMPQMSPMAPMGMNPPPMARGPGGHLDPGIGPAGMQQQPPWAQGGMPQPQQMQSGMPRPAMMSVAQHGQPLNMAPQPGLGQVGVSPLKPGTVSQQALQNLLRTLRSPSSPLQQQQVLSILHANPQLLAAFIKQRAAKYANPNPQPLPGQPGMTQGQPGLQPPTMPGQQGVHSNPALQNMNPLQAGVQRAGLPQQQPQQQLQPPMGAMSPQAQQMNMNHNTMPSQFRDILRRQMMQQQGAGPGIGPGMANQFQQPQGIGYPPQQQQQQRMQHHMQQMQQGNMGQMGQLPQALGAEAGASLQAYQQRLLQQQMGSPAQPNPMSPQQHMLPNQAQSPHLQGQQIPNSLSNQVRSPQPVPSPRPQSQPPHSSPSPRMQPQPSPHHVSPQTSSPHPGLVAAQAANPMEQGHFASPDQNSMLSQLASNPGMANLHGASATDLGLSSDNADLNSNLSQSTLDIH
UniProt P70288: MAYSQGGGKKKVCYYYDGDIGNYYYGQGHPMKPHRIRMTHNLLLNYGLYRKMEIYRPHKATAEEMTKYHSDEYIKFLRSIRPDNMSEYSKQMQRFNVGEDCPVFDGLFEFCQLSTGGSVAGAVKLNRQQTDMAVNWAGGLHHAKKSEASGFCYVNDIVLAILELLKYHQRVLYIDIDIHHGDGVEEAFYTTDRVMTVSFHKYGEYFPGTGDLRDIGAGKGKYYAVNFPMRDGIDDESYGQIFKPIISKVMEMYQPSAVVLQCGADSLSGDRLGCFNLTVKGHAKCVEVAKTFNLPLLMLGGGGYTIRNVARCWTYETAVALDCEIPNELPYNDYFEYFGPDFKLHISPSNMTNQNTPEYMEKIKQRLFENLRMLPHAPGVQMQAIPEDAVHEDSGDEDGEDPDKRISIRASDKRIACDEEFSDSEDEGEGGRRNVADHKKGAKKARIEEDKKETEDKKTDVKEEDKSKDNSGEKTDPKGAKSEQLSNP

| binding [1] | binding [2] | binding [3] | Binder |
| --- | --- | --- | --- |
| binds | binds |  | Rb2/p130 (protein, UniProt Q64700 1-1135) MASGGNQSPPPPPAAAASSEEEEEDGDAADRAQPAGSPSHQIQQRFEELCSRLNMDEAARAEAWSSYRSMSESYTLEGNDLHWLACALYVACRKSVPTVSKGTAEGNYVSLTRILRCSEQSLIEFFNKMKKWEDMANLPPHFRERTERLERNFTVSAVIFKKYEPIFQDIFKYPQEEQPRQQRGRKQRRQPCTTSEIFHFCWVLFIYAKGNFPMISDDLVNSYHLLLCALDLVYGNALQCSNRKELVNPNFKGLSEDCHPKDSKASSDPPCVIEKLCSLHDGLVLEAKGIKEHFWKPYIRKLFEKKLLKGKEENLTGFLEPGNFGESFKAVNKAYEEYVLAAGNLDERVFLGEDAEEEVGTLSRCLSAASGTESAERTQMRDILQQHLDKSKALRVCTPLTGVRYVQENSPCVTPVSTAAHSLSRLHTMLSGLRNAPSEKLERILRSCSRDPTQAIADRLKEMYEIYSQHFQPDENFSNCAKEIANKHFRFAEMLYYKVLESVIEQEQKRLGDMDLSGVLEHDAFHRSLLACCLEVVAFSHKPPGNFPFIAEIFDVPHYHFYKVIEVFIRAEDGLCREVVKHLNQIEEQILDHLAWKTKSPLWDRIRDNENRVPTCEEVMPPQNLERTDEIYIAGSPLTPRRVGEVRADAGGLGRSITSPTTLYDRYSSPTVSTTRRRLFENDSPSEGSTSGRIPPQPLVNAVPVQNVPGETVSVTPVPGQTLVTMATATVTANNGQTVTIPVQGIANENGGITFFPVQVNVGGQAQAVAGSIQPLSAQALAGSLSSQQVTGTTLQVPGPVAIQQISPGGQQQNPGQPLTSSSIRPRKTSSLALFFRKVYYLAGVRLRDLCIKLDISDELRKKIWTCFEFSIIQCTELMMDRHLDQLLMCAIYVMAKVTKEDRSFQNIMRCYRTQPQARSQVYRSVLIKGKRRNSGSSESRSHQNSPTELNTDRASRDSSPVMRSNSTLPVPQPSSAPPTPTRLTGASSDVEEEERGDLIQFYNNIYRKQIQAFAMKYSQANAQTDTPPLSPYPFVRTGSPRRVQLSQSHPIYISPHNNEAMPSPREKIFYYFSNSPSKRLREINSMIRTGETPTKKRGILLDDGSESPAKRICPENHSALLRRLQDVANDRGSQ |
|  |  | no binding | Rb2/p130, Q64700 1-1135 (protein) MASGGNQSPPPPPAAAASSEEEEEDGDAADRAQPAGSPSHQIQQRFEELCSRLNMDEAARAEAWSSYRSMSESYTLEGNDLHWLACALYVACRKSVPTVSKGTAEGNYVSLTRILRCSEQSLIEFFNKMKKWEDMANLPPHFRERTERLERNFTVSAVIFKKYEPIFQDIFKYPQEEQPRQQRGRKQRRQPCTTSEIFHFCWVLFIYAKGNFPMISDDLVNSYHLLLCALDLVYGNALQCSNRKELVNPNFKGLSEDCHPKDSKASSDPPCVIEKLCSLHDGLVLEAKGIKEHFWKPYIRKLFEKKLLKGKEENLTGFLEPGNFGESFKAVNKAYEEYVLAAGNLDERVFLGEDAEEEVGTLSRCLSAASGTESAERTQMRDILQQHLDKSKALRVCTPLTGVRYVQENSPCVTPVSTAAHSLSRLHTMLSGLRNAPSEKLERILRSCSRDPTQAIADRLKEMYEIYSQHFQPDENFSNCAKEIANKHFRFAEMLYYKVLESVIEQEQKRLGDMDLSGVLEHDAFHRSLLACCLEVVAFSHKPPGNFPFIAEIFDVPHYHFYKVIEVFIRAEDGLCREVVKHLNQIEEQILDHLAWKTKSPLWDRIRDNENRVPTCEEVMPPQNLERTDEIYIAGSPLTPRRVGEVRADAGGLGRSITSPTTLYDRYSSPTVSTTRRRLFENDSPSEGSTSGRIPPQPLVNAVPVQNVPGETVSVTPVPGQTLVTMATATVTANNGQTVTIPVQGIANENGGITFFPVQVNVGGQAQAVAGSIQPLSAQALAGSLSSQQVTGTTLQVPGPVAIQQISPGGQQQNPGQPLTSSSIRPRKTSSLALFFRKVYYLAGVRLRDLCIKLDISDELRKKIWTCFEFSIIQCTELMMDRHLDQLLMCAIYVMAKVTKEDRSFQNIMRCYRTQPQARSQVYRSVLIKGKRRNSGSSESRSHQNSPTELNTDRASRDSSPVMRSNSTLPVPQPSSAPPTPTRLTGASSDVEEEERGDLIQFYNNIYRKQIQAFAMKYSQANAQTDTPPLSPYPFVRTGSPRRVQLSQSHPIYISPHNNEAMPSPREKIFYYFSNSPSKRLREINSMIRTGETPTKKRGILLDDGSESPAKRICPENHSALLRRLQDVANDRGSQ |

Reference: article PMC3454344
